{"source": "PubChem BioAssay AID1347076", "about": "(National Center for Advancing Translational Sciences (NCATS), 2019)", "note": "The whole screen tested about 400,000 compounds, of which about 13,000 (3.2%) were called active. This list was built around the results that the source calls inconclusive (neither active nor inactive); the mix of calls is not that of the screen. Calls follow the shape of the dose curve; as a rule, active = well fitted cell-killing curve with a large enough effect; inconclusive = small, poorly fitted or top-dose-only effect, or effect the other way; inactive = flat fitted curve, though single readings scatter. A potency beside an inconclusive call is a rough fit, not a confirmed value. % is scaled to controls: 0 for no effect and ±100 for the full control effect; potency is read from the fitted curve at half-maximal effect."}
{"experiment": "qHTS assay for MDR1-selective chemotherapeutics: Primary screen using the drug-selected MDR subline cells KB-V1; also: nearly all actives have a fitted effect of over 60% in size", "settings": "KB-V1 MDR cells viability, CellTiter-Glo, 72 h; activity change, negative = cytotoxicity: at 46.1 µM (top of the series)", "method_in_brief": "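Luminescent ATP read-out (CellTiter-Glo, 10 min) measures survival of drug-selected KB-V1 MDR cells after 72 h, 37 degrees C compound exposure. Medium: phenol-red-free DMEM, 10% FBS. Values from fitted concentration-response curves.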"}
{"smiles": "CC(NC(=O)CCSc1nc(-c2ccco2)cc(C(F)(F)F)n1)c1ccccc1", "note": "(configuration not stated)", "Potency": "inconclusive: 20.6 µM [cytotoxic, single point]"}
{"smiles": "CCc1ccc(NC(=O)c2ccc3c(c2)N(Cc2ccc(C)cc2)CCS3)cc1", "Potency": "inactive"}
{"smiles": "Cc1cccc(/C=N/Nc2nncc3ccccc23)c1", "Potency": "inconclusive: 8.2 µM [cytotoxic, partial curve]"}
{"smiles": "Cc1ccc(-c2noc(CC(=O)c3ccc([N+](=O)[O-])cc3)n2)cc1", "Potency": "active: 16.4 µM"}
{"smiles": "Cc1ccc(C(=O)C(C)OC(=O)CNS(=O)(=O)c2ccc(C)cc2)cc1", "note": "(configuration not stated)", "Potency": "inactive"}
{"smiles": "COc1ccc2c(c1)c(CC(=O)Nc1nnc(C3CC3)s1)c(C)n2C(=O)c1ccc(Cl)cc1", "Potency": "inconclusive: 9.2 µM [cytotoxic, partial curve]"}
{"smiles": "CC(C)(C)CN1C(N)=NC[C@@H]1c1ccccc1", "Potency": "inconclusive: 0.366 µM [rising, full curve, poor fit]"}
{"smiles": "Cc1ccc(NC(=O)c2ccccc2NC(=O)c2cccnc2)cc1", "Potency": "inconclusive: 13 µM [cytotoxic, partial curve]"}
{"smiles": "O=C(Nc1ccc(Cc2ccncc2)cc1)C1CCC(N2C(=O)C3C4C=CC(C4)C3C2=O)CC1", "note": "(configuration not stated)", "Potency": "inconclusive: 29.1 µM [cytotoxic, single point]"}
{"smiles": "CCc1ccc(NC(=O)Cn2c(=O)c(-c3ccccc3NC(C)=O)nc3ccccc32)cc1", "Potency": "inconclusive: 18.4 µM [rising, single point]"}
{"smiles": "CN(C)CCC(C(=O)c1ccccc1)c1cccnc1", "note": "(configuration not stated)", "Potency": "inactive"}
{"smiles": "CC1=NN(S(=O)(=O)c2ccc(C)cc2)C(=O)c2ccccc2O1", "Potency": "inconclusive: 18.4 µM [cytotoxic, single point]"}
{"smiles": "COc1ccc(CC(=O)OCC(=O)c2ccc(F)cc2)cc1", "Potency": "inactive"}
{"smiles": "CCc1c(C(=O)Nc2ccc(OC)c(Cl)c2)[nH]c(C)c1C(C)=O", "Potency": "inconclusive: 10.3 µM [cytotoxic, partial curve, poor fit]"}
{"smiles": "COc1ccc(NC(=O)COC(=O)CCC(=O)c2cccs2)cc1OC", "Potency": "inconclusive: 29.1 µM [rising, single point]"}
{"smiles": "C#CCOCCOCCOCCNc1nc(N2CCN(C(=O)[C@H]([C@@H](C)CC)n3cc(CCCCN)nn3)CC2)nc(N2CCN(C(=O)[C@H]([C@@H](C)CC)n3cc(CCCN=C(N)N)nn3)CC2)n1", "Potency": "inactive"}
{"smiles": "CCn1ccc2cc(S(=O)(=O)N3CCCN(C(=O)Nc4ccccc4C(F)(F)F)CC3)ccc21", "Potency": "inconclusive: 10.3 µM [cytotoxic, partial curve]"}
{"smiles": "O=C(NCC1CCCN1S(=O)(=O)c1cccs1)c1cccc(Cl)c1", "note": "(configuration not stated)", "Potency": "inconclusive: 25.9 µM [cytotoxic, single point]"}
{"smiles": "Cc1ccccc1-c1nc(CS(=O)(=O)CC(=O)N2CCOCC2)c(C)o1", "Potency": "inactive"}
{"smiles": "Cc1cccnc1C1=NOC(Cc2ccccc2)C(=O)N1Cc1ccc2c(c1)OCO2", "note": "(configuration not stated)", "Potency": "inconclusive: 16.4 µM [cytotoxic, single point]"}
{"smiles": "C/C(=N\\NC(=O)C1(C)CC1(Br)Br)c1ccc(NC(=O)C2CCC2)cc1", "note": "(configuration not stated)", "Potency": "inconclusive: 32.6 µM [cytotoxic, single point]"}
{"smiles": "N#Cc1ccsc1NC(=O)COC(=O)c1cc2ccccc2cc1O", "Potency": "inactive"}
{"smiles": "COc1ccc(C(=O)N[C@H](C(=O)Nc2nc3c(s2)CCCC3)C(C)C)cc1", "Potency": "inconclusive: 8.2 µM [cytotoxic, partial curve]"}
{"smiles": "CC(C)CC(NC(=O)c1cccs1)c1nnc(SCc2ccc(Cl)c(Cl)c2)n1C", "note": "(configuration not stated)", "Potency": "inconclusive: 29.1 µM [cytotoxic, single point]"}
{"smiles": "CCc1ccc(S(=O)(=O)NCC2(N3CCOCC3)CCCCC2)cc1", "Potency": "inactive"}
{"smiles": "Cc1cccc(NC(=O)COC(=O)c2ccccn2)c1", "Potency": "inconclusive: 29.1 µM [rising, single point]"}
{"smiles": "CC(=O)N1c2ccc(S(=O)(=O)Nc3ccc(C)c(C)c3)cc2CC1C", "note": "(configuration not stated)", "Potency": "inactive"}
{"smiles": "CCOC(=O)c1sc(NC(=O)c2ccc(C)o2)nc1C", "Potency": "inconclusive: 16.4 µM [cytotoxic, partial curve, poor fit]"}
{"smiles": "Cc1ccc2c(=O)cc(C(=O)Nc3nnc(CC(C)C)s3)oc2c1C", "Potency": "inconclusive: 18.4 µM [rising, single point]"}
{"smiles": "Cn1c(=O)[nH]c(=O)c2c1nc(N1CCCCCC1)n2Cc1cccc2ccccc12", "Potency": "inconclusive: 29.1 µM [cytotoxic, single point]"}
{"smiles": "COc1ccc(/C=C/C(=O)OCC(=O)NCc2ccco2)cc1OC", "Potency": "inconclusive: 23.1 µM [cytotoxic, partial curve, poor fit]"}
{"smiles": "Cc1cccc(/C=N\\NC(=O)c2ccccc2-n2cccc2)c1", "Potency": "inactive"}
{"smiles": "O=C(Nc1ccc(OC(F)(F)F)cc1)c1cnccn1", "Potency": "inconclusive: 29.1 µM [cytotoxic, single point]"}
{"smiles": "CC(Oc1ccc(Cl)cc1)C(=O)N(C)CC(=O)Nc1ccc(N2CCOCC2)cc1", "note": "(configuration not stated)", "Potency": "inconclusive: 20.6 µM [cytotoxic, partial curve, poor fit]"}
{"smiles": "CCOC(=O)c1cc(-c2ccncc2)nc2c1c(C)nn2C", "Potency": "inconclusive: 23.1 µM [cytotoxic, single point]"}
{"smiles": "CCc1cccc(C)c1NC(=O)C1CCCN1C(=O)NCc1ccccc1", "note": "(configuration not stated)", "Potency": "inactive"}
{"smiles": "NC(=O)C[C@@H]1NC(=O)CNC(=O)c2cc([N+](=O)[O-])cc(I)c2NCCC(C(N)=O)NC1=O", "note": "(some centres not stated)", "activity change, negative = cytotoxicity": "inconclusive: 33%"}
{"smiles": "CC(C)(C)SCCNS(=O)(=O)c1ccccc1", "Potency": "inconclusive: 29.1 µM [cytotoxic, partial curve, poor fit]"}
{"smiles": "O=C(Cc1n[nH]c(=O)c2ccccc12)OCC(=O)N(Cc1ccccc1)Cc1ccccc1", "Potency": "inconclusive: 8.2 µM [cytotoxic, partial curve]"}
{"smiles": "O=C(N/N=C/c1cccc(F)c1)NC1CCCCC1", "Potency": "inactive"}
{"smiles": "C[C@H](CO)N1C[C@H](C)[C@@H](CN(C)C(=O)Nc2ccc(C(F)(F)F)cc2)Oc2ccc(NC(=O)C3CCCCC3)cc2C1=O", "Potency": "inactive"}
{"smiles": "O=C(c1ccccc1F)N1CCN(Cc2ccc3c(c2)OCO3)CC1", "Potency": "inconclusive: 0.651 µM [cytotoxic, full curve, poor fit]"}
{"smiles": "CN(c1ccccc1C(=O)Nc1cccc(C(F)(F)F)c1)S(C)(=O)=O", "Potency": "inconclusive: 25.9 µM [cytotoxic, partial curve, poor fit]"}
{"smiles": "NC(=O)c1cccc(-c2cnc3c(Nc4cccc(OC(F)(F)C(F)F)c4)nccn23)c1", "Potency": "inconclusive: 23.1 µM [cytotoxic, partial curve, poor fit]"}
{"smiles": "O=C(NCCN1CCN(C(=O)Nc2ccccc2)CC1)Nc1ccccc1", "Potency": "inconclusive: 16.4 µM [rising, single point]"}
{"smiles": "CN(C)S(=O)(=O)c1ccc(S(=O)(=O)NC2CCOC(C)(C)C2)cc1", "note": "(configuration not stated)", "Potency": "inactive"}
{"smiles": "Nc1ccc(S(=O)(=O)N2CCOCCOCCOCCOCCOCC2)cc1", "Potency": "inactive"}
{"smiles": "Cc1noc(C)c1C(=O)Nc1ccc(C#N)cc1", "Potency": "inconclusive: 16.4 µM [cytotoxic, single point]"}
{"smiles": "CC(=O)Nc1cccc(NC(=O)C(C)N2c3cccc4cccc(c34)S2(=O)=O)c1", "note": "(configuration not stated)", "Potency": "inconclusive: 20.6 µM [cytotoxic, single point]"}
{"smiles": "NS(=O)(=O)c1ccc(NC(=O)CSc2n[nH]c(=O)n2C2CC2)cc1", "Potency": "inconclusive: 18.4 µM [rising, single point]"}
{"smiles": "Cc1nc(N2C(=O)c3oc4ccccc4c(=O)c3C2c2ccccc2F)sc1C", "note": "(configuration not stated)", "Potency": "inactive"}
{"smiles": "Cc1cc2cc(CCNC(=O)C(=O)c3c[nH]c4ccccc34)c(=O)[nH]c2cc1C", "Potency": "inconclusive: 18.4 µM [cytotoxic, single point]"}
{"smiles": "O=C(CSc1n[nH]c(=O)n1C1CC1)Nc1cc(Cl)ccc1Oc1ccccc1", "Potency": "active: 16.4 µM"}
{"smiles": "O=C(Cc1n[nH]c(=O)c2ccccc12)OCC(=O)c1ccccc1", "Potency": "inconclusive: 0.731 µM [rising, full curve, poor fit]"}
{"smiles": "COc1ccc2[nH]c(=O)c(CN(Cc3cccnc3)S(=O)(=O)c3ccccc3F)cc2c1", "Potency": "inconclusive: 29.1 µM [cytotoxic, single point]"}
{"smiles": "COc1ccc2c(CCNC(N)=S)c[nH]c2c1", "Potency": "inconclusive: 5.8 µM [rising, full curve]"}
{"smiles": "CCCNS(=O)(=O)c1ccc(CCC(=O)Nc2cc(Cl)ccc2Oc2ccccc2)cc1", "Potency": "active: 8.2 µM"}
{"smiles": "O=[N+]([O-])c1ccc(-c2nc(-c3ccncc3)no2)cc1", "Potency": "active: 18.4 µM"}
{"smiles": "Cc1cccc(N2C(=O)CSC23C(=O)N(Cc2cccc(F)c2)c2ccccc23)c1", "note": "(configuration not stated)", "Potency": "active: 14.6 µM"}
{"smiles": "Cc1nc(C)c(-c2csc(Nc3ccc(F)cc3)n2)s1", "Potency": "inconclusive: 14.6 µM [cytotoxic, partial curve, poor fit]"}
{"smiles": "CCc1sc(-c2cc3cccc(OC)c3oc2=O)nc1-c1cc(C)ccc1C", "Potency": "inconclusive: 23.1 µM [rising, single point]"}
{"smiles": "Cc1ccc(NC(=O)CC2C(=O)N(Cc3ccccc3)C(=S)N2NC(=O)c2ccccc2)c(C)c1", "note": "(configuration not stated)", "Potency": "inconclusive: 10.3 µM [cytotoxic, partial curve, poor fit]"}
{"smiles": "CNC(=S)N1CCc2cc(OC)c(OC)cc2C1COc1ccc(F)cc1", "note": "(configuration not stated)", "Potency": "inactive"}
{"smiles": "CC1(C(=O)NCc2ccc3c(c2)OCO3)CCN1C(=O)CC1CCCC1", "note": "(configuration not stated)", "Potency": "inconclusive: 9.2 µM [cytotoxic, partial curve]"}
{"smiles": "O=C(NCCc1cccnc1)C1CCC(=O)N(Cc2ccc(Cl)cc2)C1", "note": "(configuration not stated)", "Potency": "inconclusive: 29.1 µM [rising, single point]"}
{"smiles": "COc1ccccc1NS(=O)(=O)c1cccc(C(=O)NCC(c2ccc(F)cc2)N2CCOCC2)c1", "note": "(configuration not stated)", "Potency": "inconclusive: 16.4 µM [cytotoxic, partial curve]"}
{"smiles": "Cc1ccc(C(=O)Nc2ccc(Nc3ccccc3)cc2)cc1C", "Potency": "inactive"}
